Test results taken from publication PMC11589570, “Critical assessment of LC3/GABARAP ligands used for degrader development and ligandability of LC3/GABARAP binding pockets” (Nature Communications, 2024).
Several values for one entry are separate records, joined by “and”; a condition that tells them apart may be missing. Equal entries are not always repeated. The source gives many values for each of these; only a part stands here.

Tested on: U2OS cells
Experiment: Cell growth assay (IncuCyte confluence over 72 h)
Format: cell-based
Parameters: key: % of well area covered by cells (confluence)
Details: listed as AN1
Summary of the method: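 U2OS cells were grown in DMEM with 10% FBS for 24 h before treatment. Confluence was then tracked by IncuCyte phase imaging over 72 h and expressed as % of well area covered by cells. Each point is the average of three wells.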

For `O=C1Nc2ccc(Br)cc2C1=Cc1cc(O)c(O)c(Br)c1` [compound 1], the U2OS cell growth (100 nM, 20 h) was 40.3593 and 42.0161 and 29.2198, the U2OS cell growth (100 nM, 22 h) was 47.1624 and 48.8873 and 37.6593 and the U2OS cell growth (100 nM, 24 h) was 44.465 and 44.6258 and 38.7272. For the same compound, the U2OS cell growth (100 nM, 26 h) was 48.602 and 48.5871 and 40.0085, the U2OS cell growth (100 nM, 28 h) was 53.2378 and 51.0784 and 44.2737 and the U2OS cell growth (100 nM, 30 h) was 52.1241 and 56.8497 and 46.7302. The U2OS cell growth (100 nM, 32 h) was 52.332 and 56.7876 and 43.3356, the U2OS cell growth (100 nM, 34 h) was 56.4986 and 58.8113 and 49.6077 and the U2OS cell growth (100 nM, 36 h) was 58.6166 and 63.5303 and 43.2028. The U2OS cell growth (100 nM, 38 h) was 77.7639 and 74.5543 and 64.4358, the U2OS cell growth (100 nM, 40 h) was 68.3542 and 69.419 and 54.429 and the U2OS cell growth (100 nM, 42 h) was 76.7784 and 72.4254 and 61.9031. The U2OS cell growth (100 nM, 44 h) was 73.6287 and 78.1204 and 68.1469, the U2OS cell growth (100 nM, 46 h) was 79.0744 and 76.7879 and 63.227 and the U2OS cell growth (100 nM, 48 h) was 81.938 and 81.0935 and 63.2584. For the same compound, the U2OS cell growth (100 nM, 50 h) was 79.5385 and 82.2944 and 67.0083, the U2OS cell growth (100 nM, 52 h) was 85.537 and 80.9232 and 75.3459 and the U2OS cell growth (100 nM, 54 h) was 88.5533 and 74.3088 and 78.8125. For the same compound, the U2OS cell growth (100 nM, 56 h) was 89.7175 and 89.5774 and 78.6502, the U2OS cell growth (100 nM, 58 h) was 86.6709 and 87.9635 and 78.5974 and the U2OS cell growth (100 nM, 60 h) was 98.084 and 96.9974 and 93.4356. The U2OS cell growth (100 nM, 62 h) was 94.0484 and 95.3317 and 86.8705, the U2OS cell growth (100 nM, 64 h) was 93.7005 and 94.9658 and 88.4931 and the U2OS cell growth (100 nM, 66 h) was 97.1488 and 95.9078 and 90.8217. The U2OS cell growth (100 nM, 68 h) was 95.4599 and 97.6749 and 91.2083, the U2OS cell growth (100 nM, 70 h) was 96.0033 and 93.7473 and 94.9086 and the U2OS cell growth (100 nM, 72 h) was 94.8126 and 98.1258 and 92.4062. The U2OS cell growth (100 nM, time 0 h) was 21.9567 and 22.1211 and 20.6153, the U2OS cell growth (100 nM, time 2 h) was 23.1193 and 26.0513 and 27.5425 and the U2OS cell growth (100 nM, time 4 h) was 28.0919 and 24.4778 and 24.9181. For the same compound, the U2OS cell growth (100 nM, time 6 h) was 29.5937 and 30.6061 and 32.3593, the U2OS cell growth (100 nM, time 22 h) was 46.6587 and 44.8263 and 47.8299 and the U2OS cell growth (100 nM, time 24 h) was 47.4234 and 41.3499 and 45.5274. For the same compound, the U2OS cell growth (100 nM, time 26 h) was 49.354 and 46.9628 and 51.14, the U2OS cell growth (100 nM, time 28 h) was 61.4289 and 50.0838 and 55.8093 and the U2OS cell growth (100 nM, time 30 h) was 54.7104 and 51.2124 and 54.5607. For the same compound, the U2OS cell growth (100 nM, time 32 h) was 56.4995 and 54.3411 and 61.8974, the U2OS cell growth (100 nM, time 34 h) was 62.5173 and 59.1923 and 66.4209 and the U2OS cell growth (100 nM, time 36 h) was 61.921 and 58.4979 and 64.8089. For the same compound, the U2OS cell growth (100 nM, time 38 h) was 76.036 and 68.1076 and 76.4454, the U2OS cell growth (100 nM, time 40 h) was 66.9756 and 64.3872 and 70.3312 and the U2OS cell growth (100 nM, time 42 h) was 75.4688 and 66.3078 and 73.7496. The U2OS cell growth (100 nM, time 44 h) was 77.3622 and 72.6268 and 82.1527, the U2OS cell growth (100 nM, time 46 h) was 76.8576 and 63.6378 and 79.6082 and the U2OS cell growth (100 nM, time 48 h) was 85.2137 and 78.3549 and 84.3294. For the same compound, the U2OS cell growth (100 nM, time 50 h) was 82.3085 and 74.8824 and 84.0253, the U2OS cell growth (100 nM, time 52 h) was 84.2751 and 81.0265 and 87.7303 and the U2OS cell growth (100 nM, time 54 h) was 75.0716 and 75.5887 and 90.1517. The U2OS cell growth (100 nM, time 56 h) was 89.6793 and 86.153 and 92.1114, the U2OS cell growth (100 nM, time 58 h) was 89.0774 and 85.9398 and 92.0702 and the U2OS cell growth (100 nM, time 62 h) was 93.6041 and 91.3214 and 94.5686. For the same compound, the U2OS cell growth (100 nM, time 64 h) was 93.5021 and 92.3567 and 96.8193, the U2OS cell growth (100 nM, time 66 h) was 93.1507 and 94.1047 and 94.9132 and the U2OS cell growth (100 nM, time 68 h) was 96.7693 and 95.5928 and 97.8491. The U2OS cell growth (100 nM, time 72 h) was 96.8164 and 96.0661 and 98.6321, the U2OS cell growth (500 nM, 20 h) was 47.3327 and 47.2476 and 51.4247 and the U2OS cell growth (500 nM, 22 h) was 52.6829 and 55.4408 and 57.9477. The U2OS cell growth (500 nM, 24 h) was 48.1552 and 52.333 and 63.9871, the U2OS cell growth (500 nM, 26 h) was 52.0707 and 55.0565 and 61.8975 and the U2OS cell growth (500 nM, 28 h) was 55.3463 and 60.0832 and 59.9447. The U2OS cell growth (500 nM, 30 h) was 57.0598 and 61.8753 and 66.2399, the U2OS cell growth (500 nM, 32 h) was 60.6019 and 62.8599 and 65.6454 and the U2OS cell growth (500 nM, 34 h) was 61.5932 and 68.0316 and 73.828. For the same compound, the U2OS cell growth (500 nM, 36 h) was 65.3017 and 71.6372 and 72.9317, the U2OS cell growth (500 nM, 38 h) was 76.1236 and 77.9367 and 83.6008 and the U2OS cell growth (500 nM, 40 h) was 73.5823 and 77.4659 and 81.5251. For the same compound, the U2OS cell growth (500 nM, 42 h) was 77.2567 and 78.2134 and 82.1066, the U2OS cell growth (500 nM, 44 h) was 77.863 and 81.761 and 85.2505 and the U2OS cell growth (500 nM, 46 h) was 69.923 and 76.7885 and 84.2058. The U2OS cell growth (500 nM, 48 h) was 81.4475 and 85.8143 and 89.522, the U2OS cell growth (500 nM, 50 h) was 81.6727 and 87.5695 and 88.7181 and the U2OS cell growth (500 nM, 52 h) was 86.1189 and 91.7552 and 92.6222. The U2OS cell growth (500 nM, 54 h) was 81.3846 and 90.7649 and 91.7682, the U2OS cell growth (500 nM, 56 h) was 89.5696 and 92.9592 and 91.0931 and the U2OS cell growth (500 nM, 58 h) was 89.6632 and 91.1472 and 94.1441. For the same compound, the U2OS cell growth (500 nM, 60 h) was 97.6246 and 97.3955 and 97.9649, the U2OS cell growth (500 nM, 62 h) was 95.6119 and 97.2161 and 95.9684 and the U2OS cell growth (500 nM, 64 h) was 93.8601 and 97.5402 and 95.7622. The U2OS cell growth (500 nM, 66 h) was 95.9766 and 97.4674 and 97.4999, the U2OS cell growth (500 nM, 68 h) was 97.0437 and 98.8544 and 98.2309 and the U2OS cell growth (500 nM, 70 h) was 95.6908 and 97.8445 and 97.14. For the same compound, the U2OS cell growth (500 nM, 72 h) was 98.5293 and 97.1499 and 98.062.
